From paper PMC8297594

Target: Myc-TcpAh (TIR domain protein of Aeromonas hydrophila JBN2301) (Aeromonas hydrophila JBN2301)
Test: co-IP; HEK293T co-transfected (plasmids 1:1, 48 h); lysis in 20 mM Tris-HCl pH 7.5, 150 mM NaCl, 1 mM EDTA, 1% Triton X-100; mouse anti-Myc or anti-Flag mAb at 4°C overnight, protein A-agarose; Western blot with anti-Myc, anti-GFP or anti-Flag

B1: EGFP-tagged MyD88 TIR domain (148–284 aa), zebrafish (domain or fragment, UniProt Q5XJ85 148-284)
chain: TFDAFICYCQSDIQFVHEMIKQLEHTEYNLKLCVFDRDVLPGTCVWTIASELIEKRCKRMVVVISDDYLDSDACDFQTKFALSLCPGARTKRLIPVVYKSMKRPFPSILRFLTICDYSKPCTQVWFWTRLAKALSLP
binding: binds

B2: EGFP-tagged MyD88 DD (11–101 aa), zebrafish (domain or fragment, UniProt Q5XJ85 11-101)
chain: AIPVTALNCSFRKKLGLFLNPTNTVAADWRTVAELMDFTYLEIKNFEKRDCPFEKVLTDWETRPDATVANLLSILEKAERKDVISELKEIL
binding: binds

B3: EGFP-MyD88 (zebrafish myeloid differentiation factor 88) (protein, UniProt Q5XJ85 1-284)
chain: MASKLSIDHEAIPVTALNCSFRKKLGLFLNPTNTVAADWRTVAELMDFTYLEIKNFEKRDCPFEKVLTDWETRPDATVANLLSILEKAERKDVISELKEILDDDCRKYMERQQRKPLQVPVVDSCGPRTQEREGITLYDDPQGLTPETFDAFICYCQSDIQFVHEMIKQLEHTEYNLKLCVFDRDVLPGTCVWTIASELIEKRCKRMVVVISDDYLDSDACDFQTKFALSLCPGARTKRLIPVVYKSMKRPFPSILRFLTICDYSKPCTQVWFWTRLAKALSLP
binding: binds

B4: Flag-TRIF (zebrafish TIR domain-containing adapter inducing interferon-β) (protein, UniProt Q1LUQ2 1-566)
chain: MAEGGMKPSEGGCPNLGKVFEILSQAPQERLFSLTYKMGRKPTEELVHAMCLIFLKKHEAAHAKLTAIKDSRVGNYLAEMIKTHGERLNCSHIGGFMQTDVNSLLDIARIFAILVQESLCDKSHRDKAYCKAVESCKTAGLLSLDIEEEVKQVCGPDVISTSNSELPTEMCNPNSLKVSDINPDPLPPNSNLDVSSYYLEISSPTASEGNIEESKPMSLHTPTEFKSQNNLRSCHDKSTNIFANSQAQTAVVNDTASSNRCRHDSRPSQFVMSKNTNFSSSPNDGAKPKAQPINANDRKPPTQDNSFHPTLLSDIDETFYAFVILHEAEDADEAQRLREKLEGIISANGATFSEDFAQAGRSTLRCIEDAIDNSAFVLLLLTQNFKSNQSMTTTDSAIVNSLEHHHKLNSVIPLLPRENRLSRKNIPLVLQTKVPLDESNRTFERKALKALSQDAVEKQRKIWMKKQTLKKLEEEYKRRQEENFINANLRLEREKLARLKLESESPHNNMFHSSSAQPPSCGPMLQQHDSWPQKPSYIHIENAQNIMIGNHSTMNFEHTKSSAEES
binding: no binding

No constants are given. Whether binding was seen depends on the method and setting. Binding seen in cells or lysates may run through a third protein. Binding calls can cover weak binding; strength is not graded here. Tags and fused reporters may be left off the sequences shown.
